Publication PMC11809420
Results are given in words; binding and its absence hold for the method and conditions named. In cells and extracts the contact can be indirect. Some results given as binding are weak or reduced against the parent protein; the word gives no strength. For some assays here: Where a sequence is shown, tags or fusion partners need not be part of it.

Protein sequences, listed by entry. Tags and fused reporters are not part of them.
UniProt P46937: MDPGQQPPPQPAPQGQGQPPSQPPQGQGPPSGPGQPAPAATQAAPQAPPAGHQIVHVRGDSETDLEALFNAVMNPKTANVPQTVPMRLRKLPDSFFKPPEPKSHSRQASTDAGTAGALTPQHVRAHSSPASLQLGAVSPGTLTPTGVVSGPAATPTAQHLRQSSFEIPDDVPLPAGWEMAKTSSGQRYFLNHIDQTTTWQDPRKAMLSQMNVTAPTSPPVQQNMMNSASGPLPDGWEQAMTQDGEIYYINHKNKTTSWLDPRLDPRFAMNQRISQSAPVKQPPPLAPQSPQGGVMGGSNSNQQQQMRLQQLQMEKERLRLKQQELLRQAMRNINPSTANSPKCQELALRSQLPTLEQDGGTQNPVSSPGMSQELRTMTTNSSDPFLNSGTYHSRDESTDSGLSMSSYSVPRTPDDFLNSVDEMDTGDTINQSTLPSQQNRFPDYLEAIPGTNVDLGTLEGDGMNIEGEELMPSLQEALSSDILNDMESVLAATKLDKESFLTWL
UniProt Q9GZV5: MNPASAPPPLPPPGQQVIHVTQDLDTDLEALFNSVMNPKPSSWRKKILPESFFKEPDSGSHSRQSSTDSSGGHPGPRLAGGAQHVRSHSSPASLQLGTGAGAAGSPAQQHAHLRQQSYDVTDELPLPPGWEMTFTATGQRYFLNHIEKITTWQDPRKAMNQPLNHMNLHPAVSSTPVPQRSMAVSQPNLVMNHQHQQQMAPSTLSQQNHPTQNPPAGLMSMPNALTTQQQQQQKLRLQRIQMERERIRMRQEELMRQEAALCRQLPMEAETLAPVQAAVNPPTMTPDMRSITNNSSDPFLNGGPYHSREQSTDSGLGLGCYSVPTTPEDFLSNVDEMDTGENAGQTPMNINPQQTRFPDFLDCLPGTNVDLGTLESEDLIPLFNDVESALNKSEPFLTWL
UniProt P35240: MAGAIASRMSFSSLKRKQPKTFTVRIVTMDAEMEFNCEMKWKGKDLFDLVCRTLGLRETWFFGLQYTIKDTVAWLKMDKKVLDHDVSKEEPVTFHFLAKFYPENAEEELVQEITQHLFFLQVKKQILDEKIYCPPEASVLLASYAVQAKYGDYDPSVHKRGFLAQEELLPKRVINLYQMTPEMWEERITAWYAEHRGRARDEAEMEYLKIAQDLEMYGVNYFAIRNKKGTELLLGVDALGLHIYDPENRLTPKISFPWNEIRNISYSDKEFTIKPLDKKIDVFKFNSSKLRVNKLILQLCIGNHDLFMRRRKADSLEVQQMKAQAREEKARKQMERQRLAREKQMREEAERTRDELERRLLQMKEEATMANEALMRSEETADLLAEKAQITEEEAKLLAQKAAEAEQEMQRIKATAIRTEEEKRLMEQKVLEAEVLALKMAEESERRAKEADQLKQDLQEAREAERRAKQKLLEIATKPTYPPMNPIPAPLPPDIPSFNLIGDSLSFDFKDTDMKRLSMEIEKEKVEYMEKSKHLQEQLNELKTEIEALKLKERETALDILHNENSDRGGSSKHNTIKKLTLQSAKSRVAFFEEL

T1: V5-tagged ZDHHC15 (ZDHHC15-WT), expressed in HEK293T cells (human) (UniProt Q96MV8)
T1 sequence: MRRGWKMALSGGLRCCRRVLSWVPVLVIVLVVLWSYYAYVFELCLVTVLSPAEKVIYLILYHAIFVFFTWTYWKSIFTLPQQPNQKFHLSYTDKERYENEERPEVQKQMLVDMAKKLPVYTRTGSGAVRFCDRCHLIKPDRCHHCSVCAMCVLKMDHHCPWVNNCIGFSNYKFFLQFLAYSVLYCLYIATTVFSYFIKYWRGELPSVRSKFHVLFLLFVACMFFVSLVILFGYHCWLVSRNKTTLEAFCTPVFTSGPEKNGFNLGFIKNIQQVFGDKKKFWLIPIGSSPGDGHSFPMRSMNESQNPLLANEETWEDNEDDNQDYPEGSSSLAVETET

T2: ZDHHC15 as used in the GST pull-down assays (human) (UniProt Q96MV8)
T2 sequence: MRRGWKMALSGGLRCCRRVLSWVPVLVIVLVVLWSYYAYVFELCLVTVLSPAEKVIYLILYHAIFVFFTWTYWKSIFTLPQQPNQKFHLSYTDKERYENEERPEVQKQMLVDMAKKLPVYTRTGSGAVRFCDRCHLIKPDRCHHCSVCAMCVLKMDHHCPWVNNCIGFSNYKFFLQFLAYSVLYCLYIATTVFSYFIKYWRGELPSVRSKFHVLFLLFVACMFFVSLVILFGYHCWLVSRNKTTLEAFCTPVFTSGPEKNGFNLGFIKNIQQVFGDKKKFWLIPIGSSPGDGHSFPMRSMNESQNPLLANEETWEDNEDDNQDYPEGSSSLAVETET


Key:
[1] = target: T1, V5-tagged ZDHHC15 (ZDHHC15-WT), expressed in HEK293T cells (human); experiment: co-IP; V5-tagged ZDHHC15 with HA-, Flag- or Myc-tagged Hippo components in transfected HEK293T cells
[2] = target: T2, ZDHHC15 as used in the GST pull-down assays (human); experiment: pull-down; GST pull-down; constructs and conditions not told in the text shown
[3] = target: Kidney and brain protein (KIBRA), endogenous (human (endogenous in HCC1954, TOV-112D, HEK-293T)) (UniProt Q8IX03); experiment: co-IP; endogenous proteins; HCC1954 and TOV-112D cells treated with MG132 (15 µM, 4 h); IP with anti-KIBRA or IgG, immunoblotting

| binding [1] | Molecule | further results |
| --- | --- | --- |
| no binding | YAP, tagged, expressed in HEK293T cells (from UniProt P46937 1-504) |  |
|  | C2 domain (a.a. 658-785) of KIBRA as used in the GST pull-down assay (from UniProt Q8IX03 658-785) (domain or fragment) | binding [2]: binds |
| no binding | TAZ, tagged, expressed in HEK293T cells (from UniProt Q9GZV5 1-400) |  |
| no binding | NF2/Merlin, tagged, expressed in HEK293T cells (from UniProt P35240 1-595) |  |
|  | ZDHHC15, endogenous (enzyme, UniProt Q96MV8 1-337) MRRGWKMALSGGLRCCRRVLSWVPVLVIVLVVLWSYYAYVFELCLVTVLSPAEKVIYLILYHAIFVFFTWTYWKSIFTLPQQPNQKFHLSYTDKERYENEERPEVQKQMLVDMAKKLPVYTRTGSGAVRFCDRCHLIKPDRCHHCSVCAMCVLKMDHHCPWVNNCIGFSNYKFFLQFLAYSVLYCLYIATTVFSYFIKYWRGELPSVRSKFHVLFLLFVACMFFVSLVILFGYHCWLVSRNKTTLEAFCTPVFTSGPEKNGFNLGFIKNIQQVFGDKKKFWLIPIGSSPGDGHSFPMRSMNESQNPLLANEETWEDNEDDNQDYPEGSSSLAVETET | binding [3]: binds |
